This note sets out measurements from the supplement of paper PMC3682954.

“And” between values parts separate entries of the source, which are not always exact repeats. Equal values may be shown once. Where a name gives a salt, the structure may show the parent alone. ± gives the standard deviation of the averaged measurements. Some of the results follow. Repeats are few or missing, and single values can be far off.

The assay deals with RAW 264.7. The experiment in a line: cell viability (MTT) relative to vehicle control; higher = more viable cells. Conditions: stimulus: HMGB1 5 ug/ml, 18 h.
The mark [1] stands for this setting: compound concentration: 1 ug/ml.

With `CC(C)(C)C(=O)C(Oc1ccc(Cl)cc1)n1ccnc1` (stereo not given) [Climbazole], the cell viability (compound concentration: 3 uM) was determined as 91.8%. Consider `Cc1c(C(=O)O)c(O)cc2c1C(=O)c1c(O)c([C@@H]3O[C@H](CO)[C@@H](O)[C@H](O)[C@H]3O)c(O)c(O)c1C2=O` [Carminic acid], for which, under setting [1], the cell viability worked out at 95.9%. Take `COc1c(-c2ccccc2)oc2c(ccc3occc32)c1=O` [Karanjin]: the cell viability under setting [1] is 100%. Consider `Cc1nc2sccn2c(=O)c1CCN1CCC(=C(c2ccccc2)c2ccc(F)cc2)CC1` [Diacylglycerol kinase inhibitor I], for which, for the setting “compound concentration: 3 uM”, the cell viability was 105%. For the compound `CC(C)=CCC/C(C)=C/CC/C(C)=C/CO` [Farnesol, mixture of isomers], under setting [1], the cell viability came out at 102%. `CC1(C)S[C@@H]2[C@H](NC(=O)C(C(=O)O)c3ccccc3)C(=O)N2[C@H]1C(=O)O` (stereo not given in full): where the note is “compound concentration: 3 uM”, the cell viability worked out at 108%. On the same count and under the same terms, the result for `CCN(CC)CCOC(=O)C(Cc1cccc2ccccc12)CC1CCCO1` (stereo not given) reads 99.6%; that for `CCN(CC)CCOC(=O)C(Cc1cccc2ccccc12)CC1CCCO1` (stereo not given) [Nafronyl oxalate], 96.4%; that for `COc1ccc(C(=O)/C(Br)=C\C(=O)O)cc1` [Bromebric acid], 106%. The same measure, in the same setting: the value for `C[C@H](N)[C@H](O)c1cccc(O)c1` [Metaraminol bitartrate] was 104%; that for `C[C@H](N)[C@H](O)c1cccc(O)c1` was 109%. `NC(=O)NC(CC(=O)O)C(=O)O` (racemic) [Ureidosuccinic acid; Carbamoyl-dl-aspartic acid]: the cell viability under setting [1] was 100%. Turning to `CCOC(=O)n1ccn(C)c1=S` [Carbimazole], the cell viability (compound concentration: 3 uM) turned out to be 109%. Regarding `CCOC(=O)n1ccn(C)c1=S`, the cell viability (compound concentration: 3 uM) is 103%. As for `CC(C)[C@H]1c2ccc(F)cc2CC[C@@]1(CCN(C)CCCc1nc2ccccc2[nH]1)OC(=O)C1CC1`, the cell viability (compound concentration: 3 uM) worked out at 92.2%. Same read-out and setting: the result for `COc1cc(O)c2c(c1)C(=O)c1cc(C)cc(O)c1C2=O` reads 139%; that for `O=C1CN(/N=C/c2ccc(-c3ccc([N+](=O)[O-])cc3)o2)C(=O)N1` [Dantrolene sodium salt], 98.3%. Still for that read-out and setting: the result for `O=C1CN(/N=C/c2ccc(-c3ccc([N+](=O)[O-])cc3)o2)C(=O)N1` reads 103%. Still for that read-out and setting: the result for `O=C1CN(/N=C/c2ccc(-c3ccc([N+](=O)[O-])cc3)o2)C(=O)N1` [Dantrolene sodium] reads 98.9%; that for `O=C(c1ccc2c(c1)OCCO2)N1CCCCC1`, 101%; that for `Cc1cc(NS(=O)(=O)c2ccc(N)cc2)no1` [Sulfamethoxazole], 106%. For `Cc1cc(NS(=O)(=O)c2ccc(N)cc2)no1`, under “compound concentration: 3 uM”, the cell viability was determined as 101%.

Consider `CN[C@@H]1[C@@H](O)[C@@H](O[C@@H]2[C@@H](O)[C@H](O[C@H]3OC(CN)=CC[C@H]3N)[C@@H](N)C[C@H]2N)OC[C@]1(C)O` [Sisomicin sulfate], for which the cell viability (compound concentration: 3 uM) was 91.7%. Regarding `CN[C@@H]1[C@@H](O)[C@@H](O[C@@H]2[C@@H](O)[C@H](O[C@H]3OC(CN)=CC[C@H]3N)[C@@H](N)C[C@H]2N)OC[C@]1(C)O`, the cell viability (compound concentration: 3 uM) turned out to be 102%.

For the compound `CC1(C)S[C@@H]2[C@H](NC(=O)[C@H](C(=O)O)c3ccsc3)C(=O)N2[C@H]1C(=O)O` [Ticarcillin sodium], for the setting “compound concentration: 3 uM”, the cell viability was 90.4%. With `CC1(C)S[C@@H]2[C@H](NC(=O)[C@H](C(=O)O)c3ccsc3)C(=O)N2[C@H]1C(=O)O`, the cell viability (compound concentration: 3 uM) worked out at 105%. Still for that read-out and setting: the value for `COC(=O)c1c(C)[nH]c(C)c1C(=O)c1ccccc1Cc1ccccc1` was 111%. As for `COc1cc(C(O)CO)ccc1OS(=O)(=O)O` (stereo not given) [MHPG sulfate potassium], the cell viability (compound concentration: 3 uM) was 111%. Consider `Cc1ccc2oc(-c3ccccc3)c(O)c(=O)c2c1` [6-Methylflavonol], for which the cell viability under setting [1] stood at 98.8%.

As for `CN1[C@@H]2CC[C@H]1CC(OC(=O)c1c[nH]c3ccccc13)C2` (stereo not given in full) [3-Tropanyl-indole-3-carboxylate hydrochloride], the cell viability (compound concentration: 3 uM) came out at 86.4%. On the same count and under the same terms, the value for `CCCCCCCCCCCCCCCCCCOCC(COP(=O)([O-])OCC[N+](C)(C)C)OC` (stereo not given) was 92.1%; that for `NCCC1CCCC(CCN)N1` (stereo not given) [MDL 26,630 trihydrochloride] was 109%; that for `CCCC1O[C@@H]2C[C@H]3[C@@H]4CCC5=CC(=O)C=C[C@]5(C)[C@H]4[C@@H](O)C[C@]3(C)[C@]2(C(=O)CO)O1` (stereo not given in full) was 110%. On the same count and under the same terms, the value for `CCCC1O[C@@H]2C[C@H]3[C@@H]4CCC5=CC(=O)C=C[C@]5(C)[C@H]4[C@@H](O)C[C@]3(C)[C@]2(C(=O)CO)O1` (stereo not given in full) [Budesonide] was 106 ± 13%. As for `Nc1cn([C@@H]2O[C@H](CO)[C@H](O)C2O)c(=O)[nH]c1=O` (stereo not given in full) [5-Aminouridine hydrochloride], the cell viability under setting [1] was determined as 97%. As to `CC1=C(/C=C/C(C)=C/C=C/C(C)=C/C=C/C=C(C)/C=C/C=C(C)/C=C/C2=C(C)C(=O)CCC2(C)C)C(C)(C)CCC1=O` [Canthaxanthin], the cell viability (compound concentration: 3 uM) was 116%. On the same count and under the same terms, the result for `O=NN(CCCl)C(=O)NCCCl` [Carmustine] reads 97.3%; that for `O=NN(CCCl)C(=O)NCCCl`, 98.7 ± 6.7%. On the same count and under the same terms, the result for `CCOC(=O)c1ncn2c1CN(C)C(=O)c1cc(F)ccc1-2` reads 98.1% and 110%.

On to `CCOC(=O)c1ncn2c1CN(C)C(=O)c1cc(F)ccc1-2` [Flumazenil], for which the cell viability (compound concentration: 3 uM) was 105 ± 2.8%. With `COc1cc(/C=C/c2ccc(O)cc2)cc(OC)c1`, the cell viability (compound concentration: 3 uM) turned out to be 90%. Same read-out and setting: the result for `NCC(O)(CS(=O)(=O)O)c1ccc(Cl)cc1` (stereo not given) [2-Hydroxysaclofen] reads 99.5%; that for `CC[C@H](NC(=O)c1c(C)c(-c2ccccc2)nc2ccccc12)c1ccccc1`, 114%. With `COc1ccc(-c2oc3ccc(C)cc3c(=O)c2O)cc1OC` [3',4'-Dimethoxy-3-hydroxy-6-methylflavone], under setting [1], the cell viability stood at 84.9%. On to `CC(C(=O)O)c1cccc(C(=O)c2ccccc2)c1` (stereo not given) [Ketoprofen], for which, for the setting “compound concentration: 3 uM”, the cell viability is 102 ± 8.8%. Still for that read-out and setting: the result for `CC(C(=O)O)c1cccc(C(=O)c2ccccc2)c1` (stereo not given) reads 110%. Turning to `N[C@@H](CSCC(=O)O)C(=O)O` [S-Carboxymethyl-L-cysteine], the cell viability under setting [1] stood at 99.4%. On to `Nc1nc(N)c2nc(CNc3ccc(C(=O)N[C@@H](CCC(=O)O)C(=O)O)cc3)cnc2n1` [Aminopterin], for which the cell viability (compound concentration: 3 uM) was 88.2%.

Take `Nc1nc(N)c2nc(CNc3ccc(C(=O)N[C@@H](CCC(=O)O)C(=O)O)cc3)cnc2n1`: the cell viability (compound concentration: 3 uM) was 111%. Consider `O=C1O/C(=C/Br)CCC1c1cccc2ccccc12` (stereo not given) [Bromoenol lactone], for which the cell viability (compound concentration: 3 uM) worked out at 64.8%.

As for `Cc1occc(=O)c1O`, for the setting “compound concentration: 3 uM”, the cell viability stood at 96.7%.

Take `C#C[C@]1(O)CC[C@H]2[C@@H]3CCc4cc(O)ccc4[C@H]3CC[C@@]21C`: the cell viability (compound concentration: 3 uM) is 112% and 100%. On the same count and under the same terms, the value for `C#C[C@]1(O)CC[C@H]2[C@@H]3CCc4cc(O)ccc4[C@H]3CC[C@@]21C` [Ethinylestradiol] was 109%. Same read-out and setting: the value for `CCCCN(CCCC)CCC(O)c1cc2c(Cl)cc(Cl)cc2c2cc(C(F)(F)F)ccc12` (stereo not given) [Halofantrine hydrochloride] was 81.1%; that for `NC(CCCP(=O)(O)O)C(=O)O` (stereo not drawn) [D(-)-2-Amino-5-phosphonopentanoic acid] was 98.1%. Regarding `CCOc1cc(CC(=O)N[C@@H](CC(C)C)c2ccccc2N2CCCCC2)ccc1C(=O)O`, the cell viability (compound concentration: 3 uM) was 100 ± 18%. Same read-out and setting: the result for `CCOc1cc(CC(=O)N[C@@H](CC(C)C)c2ccccc2N2CCCCC2)ccc1C(=O)O` [Repaglinide] reads 88.1%; that for `CCOC(=O)C1=C(C)NC(C)=C(C(=O)OCC)C1c1ccccc1/C=C/C(=O)OC(C)(C)C` [Lacidipine], 108 ± 2.4%; that for `CCOC(=O)C1=C(C)NC(C)=C(C(=O)OCC)C1c1ccccc1/C=C/C(=O)OC(C)(C)C`, 99.3%. `CO[C@H]1O[C@H](CO)C(O[C@@H]2OC(C(=O)O)[C@@H](O[C@H]3O[C@H](COS(=O)(=O)O)C(O[C@@H]4OC(C(=O)O)[C@@H](O[C@H]5O[C@H](CO)C(O[C@@H]6OC(C(=O)O)[C@@H](O[C@H]7O[C@H](COS(=O)(=O)O)C(O[C@@H]8OC(C(=O)O)=C[C@H](O)C8OS(=O)(=O)O)[C@H](O)[C@H]7NC(C)=O)[C@H](O)[C@H]6O)[C@H](O)[C@H]5NC(C)=O)[C@H](O)[C@H]4O)[C@H](O)[C@H]3NC(C)=O)[C@H](O)[C@H]2O)[C@H](O)[C@H]1NC(C)=O` (stereo not given in full): the cell viability (compound concentration: 3 uM) is 113%. Consider `COc1ccc(C(=O)CC(=O)c2ccc(C(C)(C)C)cc2)cc1`, for which, under “compound concentration: 3 uM”, the cell viability amounted to 108%. Take `COc1ccc(C(=O)c2ccccc2)c(O)c1`: the cell viability (compound concentration: 3 uM) was determined as 103%. With `COc1ccc(C(=O)c2ccccc2)c(O)c1` [Oxybenzone], the cell viability (compound concentration: 3 uM) came out at 103%.

For the compound `COc1c(N2C[C@@H]3CCCN[C@@H]3C2)c(F)cc2c(=O)c(C(=O)O)cn(C3CC3)c12` [Moxifloxacin], the cell viability (compound concentration: 3 uM) stood at 138%.

As for `COc1c(N2C[C@@H]3CCCN[C@@H]3C2)c(F)cc2c(=O)c(C(=O)O)cn(C3CC3)c12`, the cell viability (compound concentration: 3 uM) is 92.6% and 105%. As for `CC1(C)CCC[C@]2(C)[C@H]3CC(=O)O[C@]3(C)CC[C@@H]12` [(3aR)-(+)-Sclareolide], under setting [1], the cell viability was 96.8%. Same read-out and setting: the result for `CC(=O)OCC(=O)[C@@]1(O)[C@H](C)C[C@H]2[C@@H]3CCC4=CC(=O)C=C[C@]4(C)[C@@]3(F)[C@@H](O)C[C@@]21C` [dexamethasone 21-acetate] reads 104%.

`CC(=O)OCC(=O)[C@@]1(O)[C@H](C)C[C@H]2[C@@H]3CCC4=CC(=O)C=C[C@]4(C)[C@@]3(F)[C@@H](O)C[C@@]21C`: where the note is “compound concentration: 3 uM”, the cell viability came out at 107%. Turning to `CC(=O)OCC(=O)[C@@]1(O)[C@H](C)C[C@H]2[C@@H]3CCC4=CC(=O)C=C[C@]4(C)[C@@]3(F)[C@@H](O)C[C@@]21C` [Dexamethasone acetate], for the setting “compound concentration: 3 uM”, the cell viability stood at 100%.

Take `COc1ncnc(NS(=O)(=O)c2ccc(N)cc2)c1OC`: the cell viability (compound concentration: 3 uM) is 112%. The same measure, in the same setting: the value for `COc1ncnc(NS(=O)(=O)c2ccc(N)cc2)c1OC` [Sulfadoxine] was 103 ± 14%; that for `CC(C)(C)NC(=O)[C@@H]1C[C@@H]2CCCC[C@@H]2CN1C[C@@H](O)[C@H](Cc1ccccc1)NC(=O)[C@H](CC(N)=O)NC(=O)c1ccc2ccccc2n1` [Saquinavir mesylate] was 106%; that for `CC(C)(C)NC(=O)[C@@H]1C[C@@H]2CCCC[C@@H]2CN1C[C@@H](O)[C@H](Cc1ccccc1)NC(=O)[C@H](CC(N)=O)NC(=O)c1ccc2ccccc2n1` was 99.7%. The same measure, in the same setting: the value for `COc1ccc2[nH]c([S@@+]([O-])Cc3ncc(C)c(OC)c3C)nc2c1` [Esomeprazole magnesium dihydrate] was 109%. On the same count and under the same terms, the value for `COc1ccc2[nH]c([S@@+]([O-])Cc3ncc(C)c(OC)c3C)nc2c1` [Esomeprazole] was 100%.
